Holding throughout (test): co-IP; lysates of transfected 8505C or K1 cells incubated overnight at 4°C with primary antibody (anti-Flag or anti-p21) or IgG, Protein A/G-agarose beads 4 h at 4°C, washed with RIPA buffer, western blotting
In general terms: Immunoblotting shows a protein as a band on a membrane.

The chains behind the UniProt entries cited, without tags or fusion partners. Where a name states a change or a piece, a line headed by the entry shows the natural chain unless it says otherwise.
UniProt P38936: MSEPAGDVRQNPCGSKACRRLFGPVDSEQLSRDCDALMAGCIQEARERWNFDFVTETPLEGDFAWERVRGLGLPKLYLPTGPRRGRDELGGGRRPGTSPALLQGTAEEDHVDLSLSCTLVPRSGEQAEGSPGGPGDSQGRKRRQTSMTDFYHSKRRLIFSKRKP

Assay [1] deals with T1, Flag-tagged full-length USP44 (ubiquitin-specific protease 44) (human) (UniProt Q9H0E7).
T1 sequence: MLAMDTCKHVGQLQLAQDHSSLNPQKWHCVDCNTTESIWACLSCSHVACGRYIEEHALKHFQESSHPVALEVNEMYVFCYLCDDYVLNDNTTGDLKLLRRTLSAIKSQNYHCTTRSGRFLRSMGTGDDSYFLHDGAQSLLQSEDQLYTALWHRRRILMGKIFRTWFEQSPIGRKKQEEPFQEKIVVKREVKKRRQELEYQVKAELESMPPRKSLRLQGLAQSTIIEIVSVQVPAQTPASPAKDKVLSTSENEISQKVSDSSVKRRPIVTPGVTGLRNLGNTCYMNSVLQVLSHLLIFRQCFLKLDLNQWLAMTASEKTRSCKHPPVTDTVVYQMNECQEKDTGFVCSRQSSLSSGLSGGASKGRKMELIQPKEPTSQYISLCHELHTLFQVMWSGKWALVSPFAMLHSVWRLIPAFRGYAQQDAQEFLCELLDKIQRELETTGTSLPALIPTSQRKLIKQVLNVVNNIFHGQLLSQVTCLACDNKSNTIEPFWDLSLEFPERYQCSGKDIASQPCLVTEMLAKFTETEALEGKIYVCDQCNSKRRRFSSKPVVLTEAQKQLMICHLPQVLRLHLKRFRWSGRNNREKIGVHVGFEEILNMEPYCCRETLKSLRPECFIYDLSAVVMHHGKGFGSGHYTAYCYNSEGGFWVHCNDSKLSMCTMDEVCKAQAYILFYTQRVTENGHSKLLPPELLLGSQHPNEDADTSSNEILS

In assay [2] the target is T2, Flag-USP44 mutant C282A (catalytically inactive) (human) (UniProt Q9H0E7).
T2 sequence: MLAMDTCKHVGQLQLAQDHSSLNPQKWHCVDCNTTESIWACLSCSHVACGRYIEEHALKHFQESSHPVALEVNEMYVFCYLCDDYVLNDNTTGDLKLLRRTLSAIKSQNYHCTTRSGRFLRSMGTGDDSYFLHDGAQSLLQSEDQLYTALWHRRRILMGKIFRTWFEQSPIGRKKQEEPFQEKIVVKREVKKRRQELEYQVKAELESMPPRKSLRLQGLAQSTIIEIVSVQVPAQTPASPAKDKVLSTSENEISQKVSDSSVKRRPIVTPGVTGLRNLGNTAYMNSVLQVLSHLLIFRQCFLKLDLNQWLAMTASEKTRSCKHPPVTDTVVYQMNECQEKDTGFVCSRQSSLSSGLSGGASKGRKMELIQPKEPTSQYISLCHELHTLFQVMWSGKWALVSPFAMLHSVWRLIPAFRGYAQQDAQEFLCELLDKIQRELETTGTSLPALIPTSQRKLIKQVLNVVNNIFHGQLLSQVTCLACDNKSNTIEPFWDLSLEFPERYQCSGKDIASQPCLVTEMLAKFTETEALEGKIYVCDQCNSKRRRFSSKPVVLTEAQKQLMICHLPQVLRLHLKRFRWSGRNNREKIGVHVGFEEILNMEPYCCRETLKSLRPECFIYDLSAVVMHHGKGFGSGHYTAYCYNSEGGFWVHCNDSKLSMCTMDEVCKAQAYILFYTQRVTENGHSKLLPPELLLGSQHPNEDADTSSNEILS

Assay [3] has as its target endogenous p21 protein (human (endogenous in 8505C and K1)) (UniProt P38936).

No constants are given. Whether binding was seen depends on the method and setting. In cells and extracts the contact can be indirect. Some binding calls cover weakened binding; strength is not graded here. Sequences can lack the tags named with a protein.

Take “Myc-tagged p21 C-terminal region (amino acids 91-140) (from UniProt P38936 91-140) (domain or fragment)”: in assay [1], the binding entry is recorded as “binds”.
Take “endogenous p21 protein (from UniProt P38936 1-164)”: the binding entry in assay [2] and in assay [1] was “binds” each time.

B1: Flag-tagged full-length USP44 (ubiquitin-specific protease 44) (enzyme, UniProt Q9H0E7 1-712)
chain: MLAMDTCKHVGQLQLAQDHSSLNPQKWHCVDCNTTESIWACLSCSHVACGRYIEEHALKHFQESSHPVALEVNEMYVFCYLCDDYVLNDNTTGDLKLLRRTLSAIKSQNYHCTTRSGRFLRSMGTGDDSYFLHDGAQSLLQSEDQLYTALWHRRRILMGKIFRTWFEQSPIGRKKQEEPFQEKIVVKREVKKRRQELEYQVKAELESMPPRKSLRLQGLAQSTIIEIVSVQVPAQTPASPAKDKVLSTSENEISQKVSDSSVKRRPIVTPGVTGLRNLGNTCYMNSVLQVLSHLLIFRQCFLKLDLNQWLAMTASEKTRSCKHPPVTDTVVYQMNECQEKDTGFVCSRQSSLSSGLSGGASKGRKMELIQPKEPTSQYISLCHELHTLFQVMWSGKWALVSPFAMLHSVWRLIPAFRGYAQQDAQEFLCELLDKIQRELETTGTSLPALIPTSQRKLIKQVLNVVNNIFHGQLLSQVTCLACDNKSNTIEPFWDLSLEFPERYQCSGKDIASQPCLVTEMLAKFTETEALEGKIYVCDQCNSKRRRFSSKPVVLTEAQKQLMICHLPQVLRLHLKRFRWSGRNNREKIGVHVGFEEILNMEPYCCRETLKSLRPECFIYDLSAVVMHHGKGFGSGHYTAYCYNSEGGFWVHCNDSKLSMCTMDEVCKAQAYILFYTQRVTENGHSKLLPPELLLGSQHPNEDADTSSNEILS
Regarding B1, the binding entry in assay [3] was “binds”.

Source of the values: publication PMC11489182.
